# Data reported in PubChem BioAssay AID504467 (National Center for Advancing Translational Sciences (NCATS), 2011).
# The campaign covered roughly 330,000 compounds. About 7,700 (2.3%) were called active. Inconclusive means that the source gave no clear call. Such entries were picked first, then a sample of the others. The call rests on the fitted dose curve; in most records, active means well fitted inhibition curve with a large enough effect; inconclusive means small, poorly fitted or top-dose-only effect, or effect the other way; inactive means flat fitted curve, though single readings scatter. Where the call is inconclusive, the potency comes from a doubtful curve fit.
# Assay: qHTS screen for small molecules that inhibit ELG1-dependent DNA repair in human embryonic kidney (HEK293T) cells expressing luciferase-tagged ELG1; further: nearly all actives have a fitted effect of over 55% in size
# Conditions: HEK293T ELG1-luciferase reporter, luminescence, 16 h, DNA damage induced by 5-fluorouridine; series mostly up to 46.1 µM
# Summary of the method: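 Step one: seed 2,000 cells per well. Step two: pin-transfer compound or DMSO alongside 5-fluorouridine. Step three: incubate 16 hr, 37 °C, 5% CO2. Step four: add ONE-Glo, wait 30 min, read luminescence.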
# Potency means the concentration at half of the fitted maximal effect.
row,Compound,Potency
1,Cc1cc(OCC(O)CN(C)C(=O)C(C)Oc2ccccc2)ccc1Cl (stereo not drawn),inactive
2,COc1ccccc1C(CCN(Cc1ccccc1)C(C)=O)c1ccco1 (stereo not drawn),"inconclusive: 29.1 µM [inhibitor, partial curve, poor fit]"
3,Nc1nc(NCc2c(F)cccc2Cl)nn1-c1ccccc1,"inconclusive: 5.17 µM [activator, single point]"
4,Cc1ccc(C(=O)NNC(=S)Nc2cccc3ccccc23)s1,"inconclusive: 10.3 µM [activator, partial curve]"
5,O=C(NCCN1C(=O)S/C(=C\c2ccc(F)cc2)C1=O)c1cccc(S(=O)(=O)N2CCOCC2)c1,"inconclusive: 29.1 µM [inhibitor, single point]"
6,Cc1ccccc1OCC(=O)Nc1cccc2nsnc12,"inconclusive: 18.4 µM [activator, single point]"
7,O=C(NCC1(N2CCCCC2)CCCCC1)C1CC(=O)N(c2ccc3c(c2)OCCO3)C1 (stereo not drawn),"inconclusive: 23.1 µM [activator, single point]"
8,CC1CN(c2ccc([N+](=O)[O-])cc2Cl)CCN1S(C)(=O)=O (stereo not drawn),"inconclusive: 23.1 µM [inhibitor, partial curve, poor fit]"
9,COc1ccc(N(CC(=O)NCc2ccc(F)cc2)C(=O)Cn2nnc(-c3ccc(C)o3)n2)cc1OC,inactive
10,COc1ccc(C(CCN(Cc2ccc(OC)c(OC)c2)C(C)=O)c2ccccc2)cc1 (stereo not drawn),"inconclusive: 23.1 µM [inhibitor, single point]"
11,S=c1[nH]nc(Nc2ccccc2)s1,"inconclusive: 7.3 µM [activator, partial curve]"
12,CCCCC1(Br)C(=O)N(c2ccccc2)N(c2ccccc2)C1=O,inactive
13,CC(=O)Nc1c2c(nn1-c1ccc(F)cc1)CSC2,inactive
14,Cc1cc(Br)ccc1OCC(=O)N(Cc1nc(-c2ccccc2)no1)C(C)C,"inconclusive: 29.1 µM [inhibitor, partial curve, poor fit]"
15,O=C(Nc1nnc(C2CC2)s1)c1ccco1,"inconclusive: 18.3 µM [activator, partial curve]"
16,CC(Oc1ccc(C(=O)c2ccc(F)cc2)cc1)C(=O)N1CCOCC1 (stereo not drawn),inactive
17,CCN(C(=O)CSc1nc2cc(C(F)(F)F)ccc2n1Cc1ccccc1)C1CCS(=O)(=O)C1 (stereo not drawn),"inconclusive: 23.1 µM [inhibitor, single point]"
18,Cc1nn(CCC(N)=O)c2nc(-c3cccs3)cc(C(F)(F)F)c12,"inconclusive: 29.1 µM [inhibitor, single point]"
19,Cc1cc(=O)[nH]c(SCC(=O)Nc2cc(S(=O)(=O)N(C)C)ccc2Cl)n1,inactive
20,Cc1cc(/C(N)=N/OC(=O)Nc2ccccc2)no1,"inconclusive: 29.1 µM [activator, single point]"
21,CCCC1=C(C(=O)OCC)C(/C=C/c2ccccc2)n2ncnc2N1 (stereo not drawn),"inconclusive: 16.4 µM [inhibitor, partial curve, poor fit]"
22,O=C(CCSc1ccccc1)N1CCCC1,"inconclusive: 9.2 µM [activator, partial curve]"
23,CCOC(=O)c1c(N)sc2c1CCC(CC)C2 (stereo not drawn),inactive

row,Compound,Potency
1,CC[n+]1c(S(=O)(=O)[O-])ccc2ccc(C)cc21,"inconclusive: 18.4 µM [activator, partial curve]"
2,CCOC(=O)C1CCCN(C(=O)COc2ccc(C(=O)c3ccc(F)cc3)cc2)C1 (stereo not drawn),"inconclusive: 5.8 µM [inhibitor, single point]"
3,CN(CC(=O)Nc1ccc(Cl)c(C(F)(F)F)c1)C(=O)C1(c2ccccc2)CC1,"inconclusive: 9.2 µM [inhibitor, single point]"
4,CC1S/C(=N\N=C\c2cccc([N+](=O)[O-])c2)N(C(C)(C)C)C1=O (stereo not drawn),"inconclusive: 13 µM [inhibitor, partial curve, poor fit]"
5,CCn1c(C)nc2cc(C(=O)N/N=C/c3ccccc3)ccc21,"inconclusive: 9.2 µM [activator, partial curve]"
6,Nc1nonc1C(=O)NCCNS(=O)(=O)c1ccc(Br)cc1,inactive
7,COc1cccc(-n2sc3c(c2=S)-c2cc(OC)ccc2NC3(C)C)c1,"inconclusive: 23.1 µM [inhibitor, partial curve, poor fit]"
8,COc1ccc([C@H]2CC(=O)C=C(c3ccc(-c4ccccc4)cc3)C2)cc1OC,inactive
9,Cc1ccc2nc(-c3ccc(N4C(=O)CC(N5CCN(CCO)CC5)C4=O)cc3)sc2c1 (stereo not drawn),"inconclusive: 20.6 µM [activator, partial curve]"
10,Cc1ccn2cc(-c3cccc(NS(C)(=O)=O)c3)nc2c1,"inconclusive: 16.4 µM [activator, partial curve]"
11,O=C1c2ccccc2NC(c2ccco2)N1O (stereo not drawn),inactive
12,Cc1cccc(C)c1NC(=O)COC(=O)c1cccc2c1C(=O)c1ccccc1C2=O,active: 11.6 µM
13,Cc1[nH]n(-c2ccc(Cl)cc2)c(=O)c1N=Nc1cccnc1,"inconclusive: 4.61 µM [activator, partial curve]"
14,c1ccc(CSCc2cn3ccsc3n2)cc1,"inconclusive: 20.6 µM [activator, partial curve]"
15,COc1ccc(-c2nc(CN3CCN(C(=O)c4ccco4)CC3)c(C)o2)c(OC)c1C,active: 11.6 µM
16,O=C(CSc1nnc(NC(=O)c2ccco2)s1)NC1CCCC1,inactive
17,Cc1cccc(N2CCN(C(c3cccs3)c3nnnn3C(C)(C)C)CC2)c1C (stereo not drawn),"inconclusive: 18.4 µM [inhibitor, partial curve, poor fit]"
18,O=C(Cn1cnc2cc([N+](=O)[O-])ccc2c1=O)Nc1ccccc1-c1ccccc1,"inconclusive: 23.1 µM [inhibitor, partial curve]"
19,CCOCCCNC(=O)/C(C#N)=C/c1cc(Br)c(O)c(Br)c1,"inconclusive: 29.1 µM [inhibitor, single point]"
20,CCCNC(=O)Cn1cnc2sc(C(=O)N3CCN(Cc4ccc5c(c4)OCO5)CC3)c(C)c2c1=O,"inconclusive: 9.2 µM [inhibitor, partial curve]"
21,C=CCOc1ccc(/C=N/NC(=O)CN2CCCCC2)cc1OC,inactive
22,CCc1cc(C(=O)NCC2CCCO2)sc1C (stereo not drawn),"inconclusive: 16.4 µM [activator, partial curve]"
23,CSc1ccc(CNC(=O)C2CCC(=O)N(Cc3cccc(F)c3)C2)cc1 (stereo not drawn),inactive

# By substructure: those above containing a nitro group on carbon (3)
row,Compound,Potency
8,CC1CN(c2ccc([N+](=O)[O-])cc2Cl)CCN1S(C)(=O)=O (stereo not drawn),"inconclusive: 23.1 µM [inhibitor, partial curve, poor fit]"
4,CC1S/C(=N\N=C\c2cccc([N+](=O)[O-])c2)N(C(C)(C)C)C1=O (stereo not drawn),"inconclusive: 13 µM [inhibitor, partial curve, poor fit]"
18,O=C(Cn1cnc2cc([N+](=O)[O-])ccc2c1=O)Nc1ccccc1-c1ccccc1,"inconclusive: 23.1 µM [inhibitor, partial curve]"

# Remaining list, next part.

row,Compound,Potency
1,CCCn1nnnc1SCC(=O)Nc1ccc(F)cc1,"inconclusive: 32.6 µM [activator, partial curve, poor fit]"
2,COc1ccc(CC(=O)N/N=C/c2ccc(Cl)s2)cc1OC,"inconclusive: 7.3 µM [inhibitor, partial curve]"
3,O=[N+]([O-])c1cccc(-c2csc(Nc3ccccc3)n2)c1,"inconclusive: 18.3 µM [activator, partial curve]"
4,COc1ccc(CCC(=O)Nc2nc3ccccc3[nH]2)cc1,"inconclusive: 2.59 µM [activator, full curve]"
5,CCCCOP(=O)(OCCCC)C(Nc1ccccc1)c1ccc2c(c1)OCO2 (stereo not drawn),"inconclusive: 29.1 µM [inhibitor, single point]"
6,CCc1c(C)nc2ncnn2c1NCCc1ccc(OC)cc1,"inconclusive: 2.31 µM [inhibitor, full curve]"
7,Cc1cc(C)cc(-n2nnnc2SCC(=O)Nc2nc(-c3ccc(F)cc3)cs2)c1,"inconclusive: 18.4 µM [activator, partial curve, poor fit]"
8,COc1ccc(-c2csc(-n3ncc(C(=O)O)c3C(F)(F)F)n2)cc1,"inconclusive: 4.61 µM [activator, partial curve]"
9,Cc1ccc(NC(=O)C[n+]2cc(-c3ccccc3)n3c2CCC3)c(C)c1,inactive
10,CC(C(=O)NCCC1=CCCCC1)N1C(=O)c2ccccc2C1=O (stereo not drawn),"inconclusive: 32.6 µM [activator, partial curve, poor fit]"
11,COc1ccc(C(=O)C(C)OC(=O)c2nc3nccc(C)n3n2)cc1 (stereo not drawn),"inconclusive: 29.1 µM [activator, single point]"
12,CC1(C)Cc2c(sc3nc(-c4ccccc4)n(N)c(=O)c23)CO1,inactive
13,Cc1ccc(NC(=S)NCCc2c[nH]c3ccccc23)c(C)c1,"inconclusive: 0.231 µM [activator, single point]"
14,N#C/C(=C\c1ccc(-c2ccccc2)cc1)c1nc(-c2ccco2)cs1,"inconclusive: 14.6 µM [activator, partial curve]"
15,O=C(c1cnc2n(c1=O)CCS2)N1CCN(C(c2ccccc2)c2ccc(Cl)cc2)CC1 (stereo not drawn),"inconclusive: 14.6 µM [inhibitor, partial curve, poor fit]"
16,COc1ccc(NCCNc2ccc(OC)cc2)cc1,inactive
17,CSCCC(NC(=O)c1ccco1)C(=O)NCC(c1ccccc1)N(C)C (stereo not drawn),"inconclusive: 14.1 µM [activator, single point]"
18,Cc1ccc(SCCN2CCN(CC(C)C)CCC2=O)cc1,"inconclusive: 23.1 µM [activator, single point]"
19,O=C(/C=C/c1cccs1)N1CCc2ccccc21,"inconclusive: 2.59 µM [activator, partial curve]"
20,COC(=O)c1cc(-c2ccc(OC)c(OC)c2)n[nH]1,"inconclusive: 14.6 µM [activator, partial curve, poor fit]"
21,C=CCC[C@@H](Cc1ccc(F)cc1)C(=O)OCCNC(=O)[C@@H](CC=C)CC(=O)N[C@H](CO)Cc1ccccc1,"inconclusive: 23.1 µM [inhibitor, partial curve, poor fit]"
22,Cc1cccc(CN2C(=O)c3ccccc3Sc3ccc(C(=O)NCCN4CCOCC4)cc32)c1,inactive
